## Library screening results

Results are given as percent effect.
How 0% and 100% were set is not recorded. Most values in the screen are low, and negative values occur.
This is an unselected part of the compounds tested.

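Whole-cell assay for inhibitors of Mycobacterium tuberculosis growth, labelled Cornell in the record; the read-out is not stated. The concentration is filed as 10 mM, unlikely as a test dose, so the dose is not known. The record gives no direction; compounds strong in two other growth screens of this library score well above the rest, so higher reads as stronger inhibition. Of about 53,000 compounds tested this way, about 900 (1.7%) reached 50% or more in at least one test.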

* CSCC(C)N(C)S(=O)(=O)c1ccc(Cl)cc1C#N (configuration not stated) : 36.79%
* CN1CCC(C)(CN(C)Cc2ccc(CCC(C)(C)O)cc2)C1 (configuration not stated) : 27.66%
* CC(C)(CO)Nc1cc(-c2ccccc2)ncn1 : 8.191%
* CC(C)(C)n1ncc2c1NC(=O)CSC2c1ccc2c(c1)OCCO2 (configuration not stated) : 15.38%
* Cl.NCc1cc(-c2ccccc2)n2nccc2n1 : -50.55%
* O=C(O)c1cc(-n2cc3c(n2)CCC3)cc(S(=O)(=O)N2CCOCC2)c1 : -31.41%
* Cc1nn(C)c(N(C)C)c1CNCc1cccnc1 : -16.36%
* O=C(O)C(F)(F)F.[H][C@@]12CCN(Cc3ccc(OC)cc3)C[C@]1([H])[C@@H](CNC(=O)N(C)C)OC2 : -33.17%
* O=C(O)C(F)(F)F.O=C(O)C(F)(F)F.c1cc(C2CC2)n2cnc(C3CN(Cc4ccncc4)CCO3)c2c1 (configuration not stated) : 36.04%
* O=C(CCNC(=O)c1ccoc1)Nc1cccc(F)c1 : -7.249%
* COCCCN(C)C(=O)Cn1cccc(OC)c1=O : -20.15%
* COc1ccc(C(=O)CCc2nc(C3CC3)no2)cc1F : -0.236%
* O=C(O)C(F)(F)F.[H][C@@]12CN(c3nnc(C)s3)C[C@H](C(=O)NCC3CC3)[C@]1([H])CCO2 : 9.951%
* CNC(=O)N1CCc2cc(C(=O)NCC3CC3)c(NC(C)C)nc2CC1 : -10.08%
* [H][C@@]12CNC[C@]1([H])[C@H]2CN1CCCn2nc(CNC(=O)N(C)C)cc2C1 : 16.53%
* Cc1nnc(CNC(C)c2cc(C)c(F)c(C)c2)s1 (configuration not stated) : 23.76%
* OCCN(CCO)Cc1ccc(Br)c2cccnc12 : 20.84%
* O=C(O)C(F)(F)F.[H][C@@]12C[C@@H](Oc3cncnc3)CN1CCN(C(=O)Cc1cccc(F)c1)C2 : 18.61%
* CCCN1CCC(NC(=O)c2csc(C)c2C)CC1 : 27.26%
* Cc1cc(CN(C)C(=O)c2ccc(OC(C)C)nc2)no1 : -9.2%
* O=C(CCc1nc(Cl)n[nH]1)N[C@H]1CC[C@H]1NC1Cc2ccccc2C1 : -31.26%
* CC1CN(CC(=O)Nc2nncs2)CCN1Cc1nccn1C (configuration not stated) : 15.04%
* CCOc1ccc(CN2CCC(c3[nH]ncc3C)C2)cc1CO (configuration not stated) : 3.825%
* c1nc2c(c(C3CCOC3)n1)CCN(Cc1ccoc1)CC2 (configuration not stated) : -33.67%
* O=C(O)C(F)(F)F.[H][C@@]12CCN(CC3CCOCC3)C[C@@]1([H])O[C@@H](C(=O)N1CCC(C)CC1)C2 : -8.945%
* CCS(=O)(=O)N1Cc2nccn2CC(COc2cccnc2)C1 (configuration not stated) : 18.34%
* CC(C)(C)c1n[nH]c(C2CN(C(=O)c3ccsc3)CCO2)n1 (configuration not stated) : -36.08%
* CCn1ncc2c1NC(=O)CC2c1cnc(-c2ccccn2)nc1 (configuration not stated) : -23.28%
* COCCN1CCCC(Cc2ccc(N3CCOCC3)nn2)C1 (configuration not stated) : -4.472%
* COCCn1ccnc1C1CCCN(C(=O)c2ccncc2F)C1 (configuration not stated) : -22.83%
* O=C(CC1=CSC2=NCCCN12)N1CCCCCC1c1ccco1 (configuration not stated) : -8.894%
* Cc1nc(CN2CCc3ncnc(-c4ccc(F)cc4)c3CC2)cs1.O=C(O)C(F)(F)F : 8.086%
* CC1CCCN(Cc2coc(-c3cccc(F)c3)n2)C1 (configuration not stated) : 21.87%
* O=C(O)C(F)(F)F.O=C1COC2(CCN(Cc3cccs3)CC2)CN1c1ccccc1 : 24.32%
* NC(=O)c1cccc2nc([C@H]3CCN(Cc4ccccn4)C3)[nH]c12 : 21.5%
* Cc1nc(C)n(C2CCCN(C(=O)COc3ccccc3)C2)n1 (configuration not stated) : -60.19%
* O=C(O)C(F)(F)F.[H][C@]12CCC(=O)N(c3cccnc3)[C@@]1([H])CCN2C(=O)c1cnoc1C : 5.272%
* CN(C)c1cc(C(=O)NCC2(c3ccc(F)cc3)CC2)ccn1 : 15.35%
* CC1CCN(c2ncc3c(n2)CN(c2ccc4c(c2)OCO4)C3=O)CC1 : -26.54%

Once more, the final 2:

Compound	effect
CN(C)c1cc(C(=O)NCC2(c3ccc(F)cc3)CC2)ccn1	15.35
CC1CCN(c2ncc3c(n2)CN(c2ccc4c(c2)OCO4)C3=O)CC1	-26.54

Measurements from “University of Dundee, Small-Polar-MMV Screening Library” (2021), ChEMBL document CHEMBL3988442.